The test system of this assay is Human epidermal melanocytes from dark-pigmented skin. Put plainly: Melanin absorbance (pigmentation) in cultured human epidermal melanocytes after 8 days of incubation. In kind it is cell-based. On the procedure: The Compound of Formula (II) was examined for its ability to reduce pigmentation in vitro in human melanocytes. Human epidermal melanocytes from dark-pigmented skin were seeded in 6-well dishes and grown using commercially available Medium 254, a sterile, liquid medium prepared with 200 μM calcium chloride for the culture of human epidermal melanocytes, supplemented with 1% Penicillin/Streptomycin and 1% Human Melanocyte Growth Supplement. Corresponding controls were maintained without histamine, Diphenylhydramine HCl and Compound II. Four replicates were tested for each combination. After 8 days of incubation, melanin was collected and processed by washing the wells with IX phosphate-buffered saline (PBS), followed by addition of 200 μL of 2M NaOH to three of the four replicates, which are then scraped, pooled and boiled at 80° C. for an hour. Melanin absorption was then measured at 405 nm using a spectrophotometer.
Results are summarized in Table 1 below as percent change of melanin absorbance relative to vehicle control. A larger (positive or negative) percent change indicates a larger increase or reduction in melanin.

SMILES strings stand for the structures. Where a name gives a salt, the structure may show the parent alone.

On to `CN(C)CCOC(c1ccccc1)c1ccccc1` [Diphenhydramine HCl], for which the “effect on pigmentation (in words)” value (5 μM, summary of Table 1) is reported as “reduces pigmentation”. The “% Pigmentation (percent change of melanin absorbance relative to vehicle control)” value (concentration 5 μM, 8 days incubation, absorption at 405 nm) is −38.75%.

Values taken from patent publication US9592186B2, “Topical compositions and methods for skin lightening” (Avon Products, Inc., priority 2014, dated 2017).
